PubChem BioAssay AID686938 | Drosophila RNAi Screening Center | 2013

- Assay: 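Looking for CRAC channel components and the factors controlling them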 (primary screen)
- Cell system: Drosophila S2R+ cells
- Reagents: long dsRNA against Drosophila genes, about 0.25 µg dsRNA per well, roughly 10,000 cells
- Duration: 5 days of knock-down before the calcium assay
- Conditions: thapsigargin (SERCA pump blocker) to empty calcium stores; entry signal taken 4 min after adding it
- Measured: 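Duplicate raw fluo-4 intensities per well from a plate reader, at rest and four minutes after thapsigargin emptied calcium stores; entry-to-rest ratio filled for only some wells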
- Scale: calcium entry signal: higher = stronger calcium signal after store depletion; entry to resting ratio: higher = more calcium entry relative to resting level; resting calcium signal: higher = higher resting calcium signal
- Call rule: 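Hit if the duplicate-averaged plate z-score for entry over resting signal is under −3; wells with weak total dye signal (Fmax z < −2) or more than 5 off-targets removed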
- Meaning of the calls: active = strongly reduced calcium entry; inactive = no strong reduction
The deposit covers about 23,000 reagents; shown is a random part of those that have a named target and a result. Over the whole deposit, 75 (0.33%) got an active call. 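Raw plate signals without normalisation; calls rest on plate z-scores that were not deposited; ratio present for only 364 wells.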 Unmarked entries are inactive. A plus sign joins genes that one reagent is predicted to hit. No sequences are given here. Not given: the dose of the treatment.

Gene,dsRNA,"calcium entry signal, replicate 1 (fluorescence units)","calcium entry signal, replicate 2 (fluorescence units)",entry to resting ratio,"resting calcium signal, replicate 1 (fluorescence units)","resting calcium signal, replicate 2 (fluorescence units)"
Nna1,DRSC18993,4.57e7,1.63e7,,2.73e7,8.41e6
Nna1,DRSC19404,3.84e7,4.12e7,,1.85e7,1.99e7
ocn,DRSC17020,4.29e7,5.05e7,,2.07e7,2.29e7
CG6770,DRSC02992,3.54e7,7.55e7,,1.71e7,3.58e7
CG13949,DRSC00367,2.73e7,3.63e7,,1.39e7,1.88e7
CG11257,DRSC06068,4.65e7,5.36e7,,2.04e7,2.57e7
CG10969,DRSC09811,2.40e7,3.65e7,,1.30e7,1.68e7
tbrd-1,DRSC14601,4.90e7,5.74e7,,2.28e7,2.23e7
CG14756,DRSC06491,3.20e7,4.44e7,,1.56e7,1.93e7
Nup44A,DRSC07248,2.78e7,3.09e7,,1.30e7,1.48e7
Gr22b,DRSC20911,3.90e7,2.92e7,,1.75e7,1.48e7
Vha14-1,DRSC07571,4.62e7,4.27e7,,3.61e7,1.84e7
Xe7,DRSC12307,5.08e7,4.69e7,,2.20e7,2.14e7
prel,DRSC07271,3.18e7,2.54e7,,1.37e7,1.26e7
CG3581,DRSC15499,3.79e7,4.06e7,,5.65e7,1.87e7
CG6052,DRSC10574,4.29e7,5.10e7,,2.14e7,2.06e7
CG18814,DRSC10347,5.68e7,7.43e7,,2.57e7,2.75e7
ATP8A,DRSC05421,3.38e7,4.66e7,,1.55e7,1.92e7
ATP8A,DRSC06643,2.56e7,2.41e7,,1.14e7,1.19e7
ATP8A,DRSC06644,3.19e7,2.92e7,,1.64e7,1.43e7
CG31730,DRSC01308,4.21e7,5.28e7,,2.20e7,2.51e7
Cyp313a2,DRSC16625,3.52e7,2.85e7,,1.70e7,1.45e7
MFS16,DRSC04051,3.78e7,4.63e7,,1.83e7,1.95e7
tyf,DRSC18382,3.47e7,4.91e7,,1.79e7,2.28e7
CG3124,DRSC04339,2.46e7,2.04e7,,1.29e7,9.71e6
CG3124,DRSC23062,3.16e7,3.37e7,,1.68e7,1.59e7
slpr,DRSC18225,2.29e7,3.34e7,,1.11e7,1.50e7
slpr,DRSC23321,3.46e7,3.98e7,,1.62e7,1.83e7
CG6511,DRSC10656,3.57e7,5.41e7,,1.69e7,2.45e7
tkv + CR14033 + tRNA:Asp-GTC-2-1 + 1 more,DRSC00861,3.45e7,4.24e7,,2.14e7,2.03e7
Claspin,DRSC08308,6.78e7,3.86e7,,3.18e7,1.92e7
CG43317,DRSC15000,2.95e7,4.08e7,,1.45e7,5.33e7
CG6414,DRSC18401,2.49e7,3.26e7,,1.30e7,1.57e7
CG18731,DRSC15377,4.88e7,4.68e7,,2.29e7,1.90e7
Tpl94D,DRSC13593,3.60e7,3.22e7,,1.79e7,1.64e7
dbr,DRSC00274,3.83e7,,,1.72e7,
Fit2,DRSC10908,2.97e7,4.41e7,,1.55e7,2.72e7
Brd8,DRSC14866,2.77e7,3.19e7,,1.45e7,1.64e7
cGlr1,DRSC06270,3.16e7,3.74e7,,1.43e7,1.72e7
sov,DRSC17930,3.53e7,3.85e7,,1.65e7,1.81e7
pch2,DRSC14368,3.98e7,2.90e7,,1.98e7,1.45e7
CG32055,DRSC10666,3.69e7,2.18e7,,2.60e7,1.02e7
CG30187,DRSC22461,2.80e7,3.82e7,,1.61e7,1.70e7
Nf-YA,DRSC10385,1.88e7,2.21e7,,1.11e7,1.23e7
Nf-YA,DRSC23126,4.17e7,3.40e7,,2.14e7,1.59e7
hep,DRSC19839,3.35e7,4.49e7,,1.69e7,2.29e7
hep,DRSC20337,3.79e7,3.90e7,,1.94e7,2.08e7
Targ3,DRSC11471,3.16e7,3.23e7,,1.38e7,1.35e7
PH4alphaNE2,DRSC16544,3.11e7,4.01e7,,1.60e7,1.74e7
Pp1-13C,DRSC20269,1.24e7,2.02e7,,9.08e6,1.06e7
Pp1-13C,DRSC23305,4.10e7,4.69e7,,2.20e7,2.10e7
CG33269,DRSC10585,4.05e7,5.08e7,,2.43e7,2.74e7
CG17385,DRSC06664,2.28e7,3.16e7,,1.08e7,1.24e7
CG4927,DRSC06903,5.14e7,5.15e7,,2.23e7,2.50e7
barr,DRSC03488,2.41e7,2.46e7,,1.66e7,1.55e7
TBC1d7 + mRpS24,DRSC14611,5.34e7,5.42e7,,2.36e7,2.19e7
Ack-like,DRSC07500,3.89e7,3.34e7,,1.82e7,1.72e7
Ack-like,DRSC21845,1.83e7,3.62e7,,9.36e6,1.68e7
RpL30,DRSC02087,1.41e7,1.57e7,,9.62e6,9.36e6
Tnks,DRSC14154,7.79e7,2.24e7,,5.29e7,1.00e7
Nplp1,DRSC04370,3.64e7,,,1.72e7,
Srg1,DRSC14640,3.50e7,8.12e7,,1.75e7,2.91e7
CG8617,DRSC07223,2.10e7,3.53e7,,1.16e7,1.42e7
Gnpnat,DRSC15405,4.19e7,4.94e7,,1.82e7,2.15e7
CG4627,DRSC06873,2.41e7,3.51e7,,1.28e7,1.56e7
CG14929 + CG14930,DRSC02412,3.48e7,4.87e7,,1.71e7,2.02e7
CG11400,DRSC06070,4.15e7,3.93e7,,1.88e7,1.78e7
Rbfox1,DRSC09034,4.39e7,5.33e7,,2.27e7,2.52e7
Rbfox1,DRSC10157,1.49e7,3.81e7,,8.43e6,2.02e7
Rbfox1,DRSC10320,1.33e7,1.67e7,,8.11e6,1.00e7
Rbfox1,DRSC21378,3.14e7,4.09e7,,1.78e7,1.80e7
Rbfox1,DRSC22992,4.32e7,3.41e7,,1.80e7,1.38e7
CG10041,DRSC14179,3.35e7,3.07e7,,1.62e7,1.44e7
CG11384,DRSC18628,3.83e7,3.81e7,2.2,1.76e7,1.70e7
CG12853,DRSC06193,3.53e7,2.94e7,,1.88e7,1.72e7
